Source: paper PMC4515877
Results are given in words; binding and its absence hold for the method and conditions named. Some binding calls cover weakened binding; strength is not graded here.

Legend:
[1] = molecular target: T1, recombinant human bone morphogenetic protein 2 (human) (UniProt P12643); experiment: quartz crystal microbalance (QCM); [Ca^2+]H/rhBMP-2 (50 ug/mL rhBMP-2 with 18.0 mM Ca^2+ in PBS) preadsorbed on the chip sensor, then 10 ug/mL receptor monitored for 100 min; 25.0 C; delta f at 25 MHz; both purified
T1 sequence: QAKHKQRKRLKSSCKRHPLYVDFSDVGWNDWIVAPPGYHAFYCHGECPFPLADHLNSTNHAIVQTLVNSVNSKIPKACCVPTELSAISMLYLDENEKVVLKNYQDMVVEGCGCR

[2] = molecular target: T1, recombinant human bone morphogenetic protein 2 (human); experiment: quartz crystal microbalance (QCM); [Ca^2+]L/rhBMP-2 (50 ug/mL rhBMP-2 with 0.18 mM Ca^2+ in PBS) preadsorbed on the chip sensor, then 10 ug/mL receptor monitored for 100 min; 25.0 C; delta f at 25 MHz; both purified

- binding [1]: binds
- binding [2]: binds
B1: BMPR-IB (receptor, UniProt O00238 14-126)
chain: KKEDGESTAPTPRPKVLRCKCHHHCPEDSVNNICSTDGYCFTMIEEDDSGLPVVTSGCLGLEGSDFQCRDTPIPHQRRSIECCTERNECNKDLHPTLPPLKNRDFVDGPIHHR
